Results: paper PMC9615918
Results are given in words; binding and its absence hold for the method and conditions named. In cells and extracts the contact can be indirect. Some binding calls cover weakened binding; strength is not graded here.

Protein sequences, listed by entry. Tags and fused reporters are not part of them.
UniProt Q13546: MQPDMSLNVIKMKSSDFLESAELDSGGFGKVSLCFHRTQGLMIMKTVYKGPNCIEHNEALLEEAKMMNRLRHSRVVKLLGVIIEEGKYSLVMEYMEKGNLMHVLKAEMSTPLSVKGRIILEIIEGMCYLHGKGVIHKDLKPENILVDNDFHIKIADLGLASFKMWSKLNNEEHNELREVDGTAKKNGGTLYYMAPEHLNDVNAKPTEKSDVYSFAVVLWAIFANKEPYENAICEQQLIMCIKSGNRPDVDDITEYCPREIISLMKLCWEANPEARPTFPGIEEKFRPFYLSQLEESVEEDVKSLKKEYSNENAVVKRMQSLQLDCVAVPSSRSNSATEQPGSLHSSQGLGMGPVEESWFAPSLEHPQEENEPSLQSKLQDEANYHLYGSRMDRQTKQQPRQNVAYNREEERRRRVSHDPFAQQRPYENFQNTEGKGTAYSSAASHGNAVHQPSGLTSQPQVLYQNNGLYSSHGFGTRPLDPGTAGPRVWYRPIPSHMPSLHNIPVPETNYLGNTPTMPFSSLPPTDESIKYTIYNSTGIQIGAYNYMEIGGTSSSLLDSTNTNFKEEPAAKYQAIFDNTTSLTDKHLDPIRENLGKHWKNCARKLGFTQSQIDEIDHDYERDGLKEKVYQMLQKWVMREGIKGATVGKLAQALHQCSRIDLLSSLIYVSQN

What was measured:
[1] = target: Flag-tagged RIPK1 (Receptor Interacting Protein Kinase I) (UniProt Q13546); test: co-IP; HEK 293T co-transfected with Flag-RIPK1 and DENV plasmids; RIPA lysate (100 ug) on anti-Flag-coated protein G Dynabeads, 30 min at RT; Western blot
[2] = target: DENV NS3 (NS3-V5, expressed without NS2B, DENV2 strain New Guinea C) (DENV2 strain New Guinea C) (UniProt P14340); test: co-IP

| Substance | binding [1] | binding [2] |
| --- | --- | --- |
| DENV NS3 (NS3-V5, expressed without NS2B, DENV2 strain New Guinea C) (from UniProt P14340 1476-2093) | binds |  |
| Flag-tagged RIPK1 (Receptor Interacting Protein Kinase I) (from UniProt Q13546 1-671) |  | binds |
